# Results are given in words; binding and its absence hold for the method and conditions named. In cells and extracts the contact can be indirect. Some entries that bind do so weakly or less than the wild type. Where a sequence is shown, tags or fusion partners need not be part of it.
# Sequences of proteins named here, by UniProt entry; tags and fusion partners are left off.
# UniProt P14713: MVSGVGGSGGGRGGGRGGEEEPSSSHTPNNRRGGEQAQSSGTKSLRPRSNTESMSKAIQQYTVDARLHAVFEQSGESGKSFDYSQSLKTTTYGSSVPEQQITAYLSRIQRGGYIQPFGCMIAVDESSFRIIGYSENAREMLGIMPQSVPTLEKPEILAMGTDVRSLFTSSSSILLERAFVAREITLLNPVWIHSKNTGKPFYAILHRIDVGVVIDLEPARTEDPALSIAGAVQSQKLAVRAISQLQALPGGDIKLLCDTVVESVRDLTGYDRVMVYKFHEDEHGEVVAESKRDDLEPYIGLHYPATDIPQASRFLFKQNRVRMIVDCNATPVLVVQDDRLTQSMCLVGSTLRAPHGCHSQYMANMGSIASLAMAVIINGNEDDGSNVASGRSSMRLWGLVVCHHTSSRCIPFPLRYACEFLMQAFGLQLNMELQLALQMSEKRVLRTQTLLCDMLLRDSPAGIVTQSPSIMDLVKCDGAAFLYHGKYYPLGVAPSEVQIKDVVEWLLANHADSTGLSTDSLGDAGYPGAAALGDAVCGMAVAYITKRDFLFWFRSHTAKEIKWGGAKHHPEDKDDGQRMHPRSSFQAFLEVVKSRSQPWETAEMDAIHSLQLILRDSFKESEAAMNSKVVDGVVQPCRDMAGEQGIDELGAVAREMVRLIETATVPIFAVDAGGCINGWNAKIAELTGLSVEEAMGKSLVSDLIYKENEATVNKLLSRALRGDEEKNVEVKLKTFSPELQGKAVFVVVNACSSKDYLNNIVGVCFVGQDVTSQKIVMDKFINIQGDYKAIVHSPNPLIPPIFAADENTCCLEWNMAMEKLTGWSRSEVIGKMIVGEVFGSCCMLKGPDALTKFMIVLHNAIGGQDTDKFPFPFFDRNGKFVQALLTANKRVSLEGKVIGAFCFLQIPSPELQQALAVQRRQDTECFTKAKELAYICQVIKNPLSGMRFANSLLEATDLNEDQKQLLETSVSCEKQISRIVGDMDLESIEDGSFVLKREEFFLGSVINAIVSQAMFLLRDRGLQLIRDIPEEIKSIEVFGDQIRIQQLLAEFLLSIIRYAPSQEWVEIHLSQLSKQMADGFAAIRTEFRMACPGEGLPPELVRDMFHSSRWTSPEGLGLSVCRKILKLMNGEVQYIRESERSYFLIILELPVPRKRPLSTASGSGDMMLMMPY
# T1: GST-PIF3mAD (Arabidopsis thaliana) (UniProt O80536)
# T1 sequence: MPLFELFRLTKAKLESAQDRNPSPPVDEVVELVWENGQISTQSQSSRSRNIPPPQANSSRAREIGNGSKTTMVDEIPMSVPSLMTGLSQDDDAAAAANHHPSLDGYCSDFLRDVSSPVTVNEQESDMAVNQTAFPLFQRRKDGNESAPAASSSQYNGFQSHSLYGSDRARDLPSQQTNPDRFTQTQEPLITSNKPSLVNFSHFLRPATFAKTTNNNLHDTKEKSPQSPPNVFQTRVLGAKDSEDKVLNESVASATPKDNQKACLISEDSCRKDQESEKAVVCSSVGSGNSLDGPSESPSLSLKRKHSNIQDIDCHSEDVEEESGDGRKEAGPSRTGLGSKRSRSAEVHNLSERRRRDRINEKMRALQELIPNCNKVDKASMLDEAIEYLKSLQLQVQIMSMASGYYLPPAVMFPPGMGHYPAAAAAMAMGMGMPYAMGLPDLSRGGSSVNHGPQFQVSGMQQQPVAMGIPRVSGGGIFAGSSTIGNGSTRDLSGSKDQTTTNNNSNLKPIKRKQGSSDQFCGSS
# T2: GST-PIF3 (Arabidopsis thaliana) (UniProt O80536)
# T2 sequence: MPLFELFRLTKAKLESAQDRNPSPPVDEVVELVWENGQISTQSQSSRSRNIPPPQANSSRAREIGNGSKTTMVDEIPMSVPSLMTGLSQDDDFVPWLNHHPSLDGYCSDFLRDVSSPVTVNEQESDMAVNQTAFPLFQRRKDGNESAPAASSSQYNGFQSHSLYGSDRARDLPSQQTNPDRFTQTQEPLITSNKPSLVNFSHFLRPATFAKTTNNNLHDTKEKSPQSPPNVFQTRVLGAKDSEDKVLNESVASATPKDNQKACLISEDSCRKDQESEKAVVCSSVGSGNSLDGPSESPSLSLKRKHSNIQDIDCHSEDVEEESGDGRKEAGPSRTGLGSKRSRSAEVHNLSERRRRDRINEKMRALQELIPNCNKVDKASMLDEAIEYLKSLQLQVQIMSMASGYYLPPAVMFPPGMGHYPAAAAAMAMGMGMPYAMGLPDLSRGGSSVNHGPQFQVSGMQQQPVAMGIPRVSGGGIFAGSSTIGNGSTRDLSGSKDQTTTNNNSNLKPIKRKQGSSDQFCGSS
# B1: PHYA-HA (receptor, UniProt P14712 1-1122)
# chain: MSGSRPTQSSEGSRRSRHSARIIAQTTVDAKLHADFEESGSSFDYSTSVRVTGPVVENQPPRSDKVTTTYLHHIQKGKLIQPFGCLLALDEKTFKVIAYSENASELLTMASHAVPSVGEHPVLGIGTDIRSLFTAPSASALQKALGFGDVSLLNPILVHCRTSAKPFYAIIHRVTGSIIIDFEPVKPYEVPMTAAGALQSYKLAAKAITRLQSLPSGSMERLCDTMVQEVFELTGYDRVMAYKFHEDDHGEVVSEVTKPGLEPYLGLHYPATDIPQAARFLFMKNKVRMIVDCNAKHARVLQDEKLSFDLTLCGSTLRAPHSCHLQYMANMDSIASLVMAVVVNEEDGEGDAPDATTQPQKRKRLWGLVVCHNTTPRFVPFPLRYACEFLAQVFAIHVNKEVELDNQMVEKNILRTQTLLCDMLMRDAPLGIVSQSPNIMDLVKCDGAALLYKDKIWKLGTTPSEFHLQEIASWLCEYHMDSTGLSTDSLHDAGFPRALSLGDSVCGMAAVRISSKDMIFWFRSHTAGEVRWGGAKHDPDDRDDARRMHPRSSFKAFLEVVKTRSLPWKDYEMDAIHSLQLILRNAFKDSETTDVNTKVIYSKLNDLKIDGIQELEAVTSEMVRLIETATVPILAVDSDGLVNGWNTKIAELTGLSVDEAIGKHFLTLVEDSSVEIVKRMLENALEGTEEQNVQFEIKTHLSRADAGPISLVVNACASRDLHENVVGVCFVAHDLTGQKTVMDKFTRIEGDYKAIIQNPNPLIPPIFGTDEFGWCTEWNPAMSKLTGLKREEVIDKMLLGEVFGTQKSCCRLKNQEAFVNLGIVLNNAVTSQDPEKVSFAFFTRGGKYVECLLCVSKKLDREGVVTGVFCFLQLASHELQQALHVQRLAERTAVKRLKALAYIKRQIRNPLSGIMFTRKMIEGTELGPEQRRILQTSALCQKQLSKILDDSDLESIIEGCLDLEMKEFTLNEVLTASTSQVMMKSNGKSVRITNETGEEVMSDTLYGDSIRLQQVLADFMLMAVNFTPSGGQLTVSASLRKDQLGRSVHLANLEIRLTHTGAGIPEFLLNQMFGTEEDVSEEGLSLMVSRKLVKLMNGDVQYLRQAGKSSFIITAELAAANK
# modifications: phycocyanobilin chromophore, conjugated
# Tests used:
# [1] = target: T1, GST-PIF3mAD (Arabidopsis thaliana); test: pull-down; GST fusion proteins immobilised on glutathione Sepharose beads; in vitro translated PHYA-HA or PHYB-HA holoproteins (20 µM PCB) incubated in E wash buffer (E buffer: 50 mM Tris-HCl pH 7.5, 100 mM NaCl, 1 mM EDTA, 1 mM EGTA, 1% DMSO, 2 mM DTT; with 0.1% IGEPAL CA-630) for 2 h at 4 °C; in R light (Pfr), also done in FR light (Pr); bound fractions detected by anti-HA immunoblot; only the target purified
# [2] = target: T2, GST-PIF3 (Arabidopsis thaliana); test: as above
Molecule,binding [1],binding [2]
PHYB-HA (from UniProt P14713 1-1172) (receptor),binds,binds
B1,binds,binds
